Data on 42 sequences can be found in publication PMC7819943, “Rice protein-binding microarrays: a tool to detect cis-acting elements near promoter regions in rice”.

The other results are listed elsewhere or left out.

For this assay, the target named is T1, OsSMF1 (Oryza sativa, UniProt Q6ZLB0 1-436).
T1 sequence: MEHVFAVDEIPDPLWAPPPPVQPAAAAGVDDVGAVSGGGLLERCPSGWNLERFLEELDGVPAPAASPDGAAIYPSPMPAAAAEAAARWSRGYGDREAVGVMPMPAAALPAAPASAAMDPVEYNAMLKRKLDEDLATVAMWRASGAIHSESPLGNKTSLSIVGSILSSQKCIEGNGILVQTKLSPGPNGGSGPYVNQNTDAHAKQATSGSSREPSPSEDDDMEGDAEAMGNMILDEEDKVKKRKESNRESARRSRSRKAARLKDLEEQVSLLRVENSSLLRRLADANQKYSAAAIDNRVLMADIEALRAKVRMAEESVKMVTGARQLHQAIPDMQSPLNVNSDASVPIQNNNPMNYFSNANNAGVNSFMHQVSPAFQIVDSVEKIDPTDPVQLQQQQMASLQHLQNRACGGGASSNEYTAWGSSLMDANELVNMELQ
The assay can be described thus: protein-binding microarray (RPBM); PBS, 2% BSA, 51.3 ng/ul salmon testes DNA, 50 uM zinc acetate, 200 nM TF, 25 C, 1 h; high values mean tight binding. As to conditions: protein: recombinant; tags: N-terminal polyhistidine and DsRed monomer fusion (pET32a); chain copies: 2; label: CyDye5-dUTP incorporated in the synthesized complementary strand; 3' TTTTT single-stranded linker to array surface; dsDNA, one strand shown. A digest of the protocol: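 The binding signal for each feature is its fluorescence intensity in arbitrary units. An Axon 4000B scanner was used to read a custom Agilent array that had been made double-stranded with Cy5-dUTP primer extension, blocked with 2% BSA, incubated at 25 °C for 1 h with 200 nM protein in PBS, 2% BSA, salmon testes DNA and 50 µM zinc acetate, and washed. The protein was an N-terminal polyhistidine–DsRed transcription factor fusion from E. coli BL21-CodonPlus, purified on Ni–NTA.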
“ACATAATATTATGAAAACATTATTACTGAAAACCTAGATGCGGAGTCACCTAGTGCAG”: the binding signal was 32400 fluorescence intensity (a.u.).

In the case of “CGGGGTTATGTGTCACGTGTCAAAATGTGTGGTTTTGTACCGGAGTCACCTAGTGCAG”, the binding signal is 8900 fluorescence intensity (a.u.).

Turning to “TGGGTACCGTCGCGTTCTTCTTTCCCCTAGCTAGGTCTCGCGGAGTCACCTAGTGCAG”, the binding signal is 4000 fluorescence intensity (a.u.).

With “ATCCAATCGATCACCAACCTCCGATTTCGACATGCCCCGACGGAGTCACCTAGTGCAG”, the binding signal was 3180 fluorescence intensity (a.u.).

Take “GGTTCGCCGGGTTTGGAGGAGGTGACGCAACGGCTCCGGCCGGAGTCACCTAGTGCAG”: the binding signal is 5720 fluorescence intensity (a.u.).

For “TCCCCACTCGCAGTGTAGTTACTCAATGAGGTGTTGCACCCGGAGTCACCTAGTGCAG”, the binding signal was 3290 fluorescence intensity (a.u.).

Regarding “CTGAGATGATTTTGTTCATGCATGAAGTCCTTTCTGAAGTCGGAGTCACCTAGTGCAG”, the binding signal is 3490 fluorescence intensity (a.u.).

On to “GGTAATAGTGTCAACATATTGCATTAAGATGATTGCAGTGCGGAGTCACCTAGTGCAG”, for which the binding signal is 24300 fluorescence intensity (a.u.).

“ACACGAACCGCAGCCTCCCAGCCCACGCTACCTTGGCTACCGGAGTCACCTAGTGCAG”: the binding signal is 3330 fluorescence intensity (a.u.).

Consider “ACTAGAGTACAGATGAACAGAGGGAACCATACAACCAGTCCGGAGTCACCTAGTGCAG”, for which the binding signal was 3990 fluorescence intensity (a.u.).

For the sequence “GCGTCCACCTTCCTCGCCAACCACCTCATCACCATGTACTCGGAGTCACCTAGTGCAG”, the binding signal is 5060 fluorescence intensity (a.u.).

As to “CGGTATCGACGCAGCGTCTGAATGCAAGGGCCCGTGGTCACGGAGTCACCTAGTGCAG”, the binding signal is 27400 fluorescence intensity (a.u.).

Consider “GACTGCCTCCGCAACGGCGCGTCCACGATCCCACGTTCCCCGGAGTCACCTAGTGCAG”, for which the binding signal was 3870 fluorescence intensity (a.u.).

For “ATGATTGTACTACTACTACCTGAATCTTGGAGTAGAGTTACGGAGTCACCTAGTGCAG”, the binding signal was 25700 fluorescence intensity (a.u.).

For “AACACACCACTTGATCTCCACAAAGTCGACACGCAAGGTGCGGAGTCACCTAGTGCAG”, the binding signal was 6110 fluorescence intensity (a.u.).

Take “TTTGAAAGGAAGCAGCAAGCTTGTTGTTACTGCGTCAGTTCGGAGTCACCTAGTGCAG”: the binding signal is 3680 fluorescence intensity (a.u.).

In the case of “GCCATTAGCGCTCCACGTGTCCTCTTAGGCACTTCACCAACGGAGTCACCTAGTGCAG”, the binding signal was 10600 fluorescence intensity (a.u.).

For “GCTTTGTGTAAGTTGCTCTTAGTTGCGTAACTGCAAAAGTCGGAGTCACCTAGTGCAG”, the binding signal is 6780 fluorescence intensity (a.u.).

“CATGTCAAGAGACAATGGAATTGATGGCATCACGCATGGCCGGAGTCACCTAGTGCAG”: the binding signal is 3340 fluorescence intensity (a.u.).

With “CAGCAGCAACGAAATCAGAACGAGGCGCAGGAAGAAGAAACGGAGTCACCTAGTGCAG”, the binding signal is 28000 fluorescence intensity (a.u.).

“CGTTGGGCTCAAGGGGAGGGATATCTATCTAACAGTAACACGGAGTCACCTAGTGCAG”: the binding signal was 4110 fluorescence intensity (a.u.).

In the case of “TAGCAGCCAAGAATAGCCAGCGACCAAACCTACGAGACGCCGGAGTCACCTAGTGCAG”, the binding signal is 3790 fluorescence intensity (a.u.).

Consider “TGTTGTGCTTGCTGATGTGTTGGAAATTCCACCCTTTTGTCGGAGTCACCTAGTGCAG”, for which the binding signal is 7560 fluorescence intensity (a.u.).

With “AGAGTCAACCTGTCACGTCAGCAGAAACCGCTTCATAAGGCGGAGTCACCTAGTGCAG”, the binding signal was 7190 fluorescence intensity (a.u.).

For the sequence “GACGGCGGCCGCAGCAGGCTTGATGAGACGGAAGCTGCGGCGGAGTCACCTAGTGCAG”, the binding signal is 37700 fluorescence intensity (a.u.).

“CCGCAGTCGTGGCAACGCCGACATCCTCTTTTAGCCCACCCGGAGTCACCTAGTGCAG”: the binding signal is 3420 fluorescence intensity (a.u.).

Turning to “GGCACGTCAGTCGCCAAGGGTTCGGGAGATAAGAGGCCATCGGAGTCACCTAGTGCAG”, the binding signal is 3730 fluorescence intensity (a.u.).

In the case of “GAAATGACATTTCAATTCATCTATTTATTAGCGGGAGTTGCGGAGTCACCTAGTGCAG”, the binding signal is 4570 fluorescence intensity (a.u.).

Turning to “GACTTCTTGTCAACGATGTGGGCACGTGGCCATGGAAAGTCGGAGTCACCTAGTGCAG”, the binding signal is 6780 fluorescence intensity (a.u.).

With “CTTCCGTTCTTCTCTTGTTTACCATATAAGGGCATGTACACGGAGTCACCTAGTGCAG”, the binding signal is 3400 fluorescence intensity (a.u.).

“TCGATTCATTCGTTCCTTGGGTCGTGTCAGCATGGCCCATCGGAGTCACCTAGTGCAG”: the binding signal is 11100 fluorescence intensity (a.u.).

Regarding “ACTGTATGTGATGTGGATGATCTTGAAGATGTTGGGAGATCGGAGTCACCTAGTGCAG”, the binding signal was 4060 fluorescence intensity (a.u.).

With “GTGAAGAAACCATATACATATTTTGGTTTATGTGTCACCTCGGAGTCACCTAGTGCAG”, the binding signal was 4980 fluorescence intensity (a.u.).

On to “GCCTCGCCTCGCCGCCGGCGGCCACCGTCTCCGCCGCCTCCGGAGTCACCTAGTGCAG”, for which the binding signal is 3410 fluorescence intensity (a.u.).

Regarding “CGATTAGTACTGAATGTACCACATCAGTTTGTTCGATATGCGGAGTCACCTAGTGCAG”, the binding signal was 3850 fluorescence intensity (a.u.).

“GTGATACCACGTATGATACCACGTAGATATCAGCTAGTTCCGGAGTCACCTAGTGCAG”: the binding signal is 9120 fluorescence intensity (a.u.).

For “GGATTAGATACACTTCTCATCTGTCACTACTCTAAACTGTCGGAGTCACCTAGTGCAG”, the binding signal was 3140 fluorescence intensity (a.u.).

As to “CCATGGAAGCCTGACACGTGTACTCCGGTCACGCGCGTAGCGGAGTCACCTAGTGCAG”, the binding signal is 14400 fluorescence intensity (a.u.).

Turning to “TGACTAATACGCAGGGGAGCTCGCCGCCGCCGCCGCCGTCCGGAGTCACCTAGTGCAG”, the binding signal was 21600 fluorescence intensity (a.u.).

As to “CCCGCATCGCCTCCACCACTGCGGCCTTGCACCACCACCGCGGAGTCACCTAGTGCAG”, the binding signal was 26500 fluorescence intensity (a.u.).

As to “ACGCCGCTAGTTCTTTTCTCCAGAGCAATCTGGTCAGTTCCGGAGTCACCTAGTGCAG”, the binding signal is 59900 fluorescence intensity (a.u.).

On to “CCTCGCGCGGAGCCGTACCCACGTGCGCCCCACGCGTGCACGGAGTCACCTAGTGCAG”, for which the binding signal is 3540 fluorescence intensity (a.u.).
